According to PubChem BioAssay AID2685 (National Center for Advancing Translational Sciences (NCATS), 2010):
The list shows a part of the results. The main result of the screen is listed elsewhere. These columns were measured beside it and carry no call. The list favours compounds with an active or inconclusive main result. The note in brackets gives the kind of curve behind each potency; many fits are weak.

Assay: qHTS Assay for Lipid Storage Modulators in Drosophila S3 Cells;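 on cell number change: cells counted by Cell Tracker Red CMTPX staining in the red channel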
Conditions: BODIPY lipid droplet fluorescence, 18-24 h; for cell number change: measured here: cell count max response, cells fed with added oleic acid
How it was run: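 Drosophila S3 cells got compounds at several concentrations plus oleic acid (400 uM solution). Laser-scanning cytometry with 488 nm excitation read lipid droplets at 500-530 nm and cells at 575-640 nm. Percent activity was relative to 20 uM Triacsin C.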

[1] = measured here: lipid fluorescence (Fed channel) AC50, cells fed with added oleic acid
[2] = measured here: cell number channel AC50, cells fed with added oleic acid

Row | Structure (SMILES) | cell number change [%] | AC50 [1] | AC50 [2]
1 | c1ccc(Cn2c(NCc3ccccn3)nc3ccccc32)cc1 | -12.4 | 0.651 µM [rising, full curve, poor fit] | 
2 | CN1CCN(C(=O)C2CCN(c3ncc(C(F)(F)F)cc3Cl)CC2)CC1 |  | 29.1 µM [rising, single point] | 
3 | CCn1c2ccccc2c2cc(NC(C)=O)ccc21 | 15.6 |  | 
4 | Cc1cc(C)nc(SCC(=O)Nc2ccc(S(=O)(=O)Nc3nccs3)cc2)n1 |  | 14.6 µM [rising, partial curve] | 
5 | Cc1ccc(N(Cc2ccccc2)C(=O)c2cccc(S(=O)(=O)N3CCOCC3)c2)cc1 | 55 |  | 8.2 µM [rising, partial curve]
6 | CCOc1ccc(-c2ccc(/C=C3/C(=N)N4C(C)=CSC4=NC3=O)o2)c([N+](=O)[O-])c1 | -6.25 | 29.1 µM [falling, single point] | 
7 | Nc1ncnc(SCc2c(F)cccc2Cl)n1 | 12.5 | 4.61 µM [falling, single point] | 6.51 µM [falling, single point]
8 | COc1cccc(C(=O)Nc2ccc3[nH]ncc3c2)c1 | 22.5 | 29.1 µM [rising, single point] | 
9 | Cc1cc(C)c2sc(NNC(=O)C3COc4ccccc4O3)nc2c1 (stereo not drawn) | -32.8 | 29.1 µM [falling, single point] | 29.1 µM [falling, single point]
10 | CC(=O)c1sc(NC(=O)c2ccccc2C)nc1C | 37.8 |  | 
11 | COc1ccc2nc(N(CCN(C)C)C(=O)c3ccc(C(=O)c4ccccc4)cc3)sc2c1 | 33.2 | 6.51 µM [rising, partial curve] | 0.082 µM [rising, full curve, poor fit]
12 | Cc1cc(N/C=C/C(=O)c2ccccc2)ccc1Br | -19.2 |  | 
13 | Cc1cc(=O)[nH]c(NCc2ccc(Cl)cc2)n1 | -33.4 |  | 0.164 µM [falling, full curve, poor fit]
14 | C=CCN1N=C(/C=C/c2ccc(C)cc2)CCC1=O | -58.6 | 11.6 µM [falling, partial curve] | 16.4 µM [falling, partial curve]
15 | Cc1ccc(C(=O)N(c2ccccn2)C(C)c2ccco2)cc1 (stereo not drawn) | 7.93 | 29.1 µM [falling, single point] | 
16 | COc1cccc(N2CCN(Cc3cccnc3)CC2)c1 | -4.35 | 0.00461 µM [falling, full curve, poor fit] | 
17 | O=C(COc1ccc2ccccc2c1)Nc1ccc2c3c(cccc13)CC2 | -30.5 | 16.4 µM [falling, single point] | 29.1 µM [falling, single point]
18 | CC(Sc1ccccn1)C(=O)Nc1ccccc1 (stereo not drawn) | 11.9 | 11.6 µM [rising, single point] | 
19 | Nc1nn(-c2cccc(F)n2)cc1-c1ccccc1 | 27.4 |  | 

Row | Structure (SMILES) | cell number change [%] | AC50 [1] | AC50 [2]
20 | CCC(CC)NC(=O)Nc1ccc(F)c(Cl)c1 | -37.5 | 0.00517 µM [falling, full curve, poor fit] | 1.16 µM [falling, full curve, poor fit]
21 | COc1ccccc1NC(=O)c1c(N=Cc2ccccc2O)cnn1C | 102 | 0.58 µM [rising, single point] | 23.1 µM [rising, partial curve, poor fit]
22 | O=C(CSc1nc2ccccc2c(=O)[nH]1)N1CCCCCC1 | -14.8 | 18.4 µM [rising, partial curve] | 
23 | COc1ccc(NC(=O)c2cc(=O)c3ccccc3o2)cc1Cl | 5.28 | 29.1 µM [rising, single point] | 
24 | Cc1n[nH]c(C)c1CCc1nc2c3ccccc3nc(SCC(N)=O)n2n1 | 5.94 | 0.651 µM [rising, single point] | 
25 | O=C(NCC1OCCCN1S(=O)(=O)c1cc(F)ccc1F)C(=O)NC1CCCC1 (stereo not drawn) | 2.64 |  | 
26 | Nc1cc(Oc2ccc(Cl)cc2Cl)nc(N)n1 | 16.1 | 23.1 µM [rising, single point] | 0.0461 µM [rising, full curve, poor fit]
27 | O=C(c1cc2ccccc2oc1=O)N(Cc1ccc2c(c1)OCO2)Cc1ccco1 | -2.8 | 2.31 µM [rising, single point] | 
28 | O=C(CC(=O)N/N=C/c1c(Cl)cccc1Cl)NCc1cccnc1 | -1.47 | 32.6 µM [falling, single point] | 
29 | O=C(C(c1ccccc1)c1ccccc1)N1CCOCC1 | 1.48 |  | 
30 | Cc1cc(=O)oc2cc(NC(=O)c3cccc(Br)c3)ccc12 | 18.8 | 6.51 µM [rising, single point] | 
31 | O=C(C1CCCN(S(=O)(=O)c2ccccc2)C1)N1CCN(c2ccccc2)CC1 (stereo not drawn) | -19.3 | 29.1 µM [falling, single point] | 
32 | CCN(C(=O)CSc1ccc(S(=O)(=O)N2CCOCC2)cn1)c1ccccc1 | -14.1 | 0.00461 µM [falling, full curve, poor fit] | 
33 | Cc1ccc(S(=O)(=O)N2CCN(C(=O)CCC(=O)NCc3cccc(C(F)(F)F)c3)CC2)cc1 | -50 |  | 0.517 µM [falling, full curve]
34 | CC1=C(C(=O)OC2CCCCCCC2)C(c2cccc(O)c2)NC(=O)N1 (stereo not drawn) | 5.35 | 0.082 µM [falling, full curve, poor fit] | 3.26 µM [rising, single point]
35 | O=C(Nc1nc(-c2cccc3ccccc23)cs1)c1ccc2c(c1)S(=O)(=O)c1ccccc1C2=O | 88.2 |  | 29.1 µM [rising, single point]
36 | Clc1ccc(/C=N\Nc2ccccc2)cc1 | 19.1 | 29.1 µM [rising, single point] | 
37 | O=C(O)CN1CCN(Cc2ccccc2)C1=O | -18.8 | 4.61 µM [falling, single point] | 2.31 µM [falling, partial curve, poor fit]
38 | O=C(CN1CCN(S(=O)(=O)c2cccc(Cl)c2)CC1)NCC1(N2CCOCC2)CCCCC1 | -11.3 | 1.16 µM [falling, partial curve, poor fit] | 

As entered above:
In AC50 [1], O=C(CC(=O)N/N=C/c1c(Cl)cccc1Cl)NCc1cccnc1 shows 32.6 µM [falling, single point]
In cell number change [%], COc1ccc(NC(=O)c2cc(=O)c3ccccc3o2)cc1Cl shows 5.28
